Not every detail of the peptide structures is certain; ends, links or a residue may be inferred. Where no end group is shown, it is not given here.
Target: T1, NADPH oxidase (Homo sapiens, UniProt P04839+P13498+P14598+P19878)
T1 construct: 4×10^5 cell equivalents (cell eq) of neutrophil membranes; of neutrophil cytosol, or (2) 100 nM each of baculovirus recombinant p47-phox and p67-phox; from tissue; host or cells: neutrophil membranes and cytosol (human neutrophils, leukapheresis or blood)
Test: cell-free NADPH oxidase assay (O2- production), inhibition by peptides
Format: biochemical
Details: within-described assays
Experimental: Production of O2^- by NADPH oxidase may be monitored in a cell-free system at 25° C. by following the superoxide dismutase (SOD)-inhibitable reduction of cytochrome c at […], as described in Curnutte, et al., PNAS USA 86: 825-829 (1989). The method may be described essentially as follows.
Activation of the dormant respiratory burst oxidase in a cell-free system by SDS in the presence of cytosol (or partially-purified cytosol factor components) was monitored by measuring O2^- production by the activated oxidase. O2^- generation was determined by a continuous assay in which superoxide dismutase-inhibitable cytochrome c reduction was followed with time at 25° C. in a double-beam spectrophotometer at 550 nm by a modification of the method described in Curnutte, et al., J. Biol. Chem. 262: 6450-6452 (1987). Assay mixtures contained (final concentration) 0.15 mM cytochrome c, 6.5 mM MgCl2, 87 mM KCl, 2.6 mM NaCl, 8.7 mM PIPES (pH 7.3), 0.27 mM ATP (Sigma), 0.33 mM EGTA, 0.16 mM NADPH, and 0.04 mM SDS, plus 0.9×10^7 cell eq of cytosol and 1.55×10^6 cell eq of membranes solubilized in deoxycholate (0.94 mM) in 375 μl. The reference cuvette also received 22.5 μg of superoxide dismutase. All components except NADPH were mixed in the cuvette and allowed to stand for 3.5 minutes to allow activation of the oxidase by SDS. […]

Chains of the proteins cited; added tags and fusions are not shown. Lines headed by an entry give the natural chain unless they say otherwise; changes in a name come on top. Residues count along the entry.
UniProt P04839, 2-570 limits assumed: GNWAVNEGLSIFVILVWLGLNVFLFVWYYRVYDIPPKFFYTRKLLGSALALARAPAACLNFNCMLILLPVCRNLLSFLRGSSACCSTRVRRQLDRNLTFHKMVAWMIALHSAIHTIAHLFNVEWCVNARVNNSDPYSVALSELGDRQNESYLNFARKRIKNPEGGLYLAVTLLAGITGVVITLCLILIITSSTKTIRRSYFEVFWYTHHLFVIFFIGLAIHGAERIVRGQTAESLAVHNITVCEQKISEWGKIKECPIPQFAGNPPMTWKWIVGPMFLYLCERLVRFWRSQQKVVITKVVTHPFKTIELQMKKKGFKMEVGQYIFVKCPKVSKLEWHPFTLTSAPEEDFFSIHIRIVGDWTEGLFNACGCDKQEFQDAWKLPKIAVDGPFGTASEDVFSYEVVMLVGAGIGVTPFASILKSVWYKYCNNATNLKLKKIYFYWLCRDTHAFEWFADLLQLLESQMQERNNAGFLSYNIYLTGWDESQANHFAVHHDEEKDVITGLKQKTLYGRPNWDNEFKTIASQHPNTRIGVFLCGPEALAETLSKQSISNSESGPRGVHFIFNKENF
UniProt P13498, 2-195 limits assumed: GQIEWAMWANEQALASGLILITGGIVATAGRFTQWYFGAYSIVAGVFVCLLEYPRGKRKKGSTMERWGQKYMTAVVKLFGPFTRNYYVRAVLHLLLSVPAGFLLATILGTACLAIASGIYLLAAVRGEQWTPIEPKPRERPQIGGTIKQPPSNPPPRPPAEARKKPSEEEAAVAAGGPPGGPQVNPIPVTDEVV
UniProt P14598: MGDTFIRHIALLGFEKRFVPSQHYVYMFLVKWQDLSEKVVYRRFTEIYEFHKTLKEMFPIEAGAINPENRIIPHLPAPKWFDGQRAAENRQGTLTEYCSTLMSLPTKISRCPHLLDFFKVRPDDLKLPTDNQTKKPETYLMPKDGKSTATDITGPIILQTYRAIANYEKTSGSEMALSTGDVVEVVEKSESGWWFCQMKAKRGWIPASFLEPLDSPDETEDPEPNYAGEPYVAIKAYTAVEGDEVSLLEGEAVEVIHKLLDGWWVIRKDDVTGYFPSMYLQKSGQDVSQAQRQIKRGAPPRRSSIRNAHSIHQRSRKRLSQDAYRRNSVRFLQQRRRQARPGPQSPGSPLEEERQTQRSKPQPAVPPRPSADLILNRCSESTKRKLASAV
UniProt P19878: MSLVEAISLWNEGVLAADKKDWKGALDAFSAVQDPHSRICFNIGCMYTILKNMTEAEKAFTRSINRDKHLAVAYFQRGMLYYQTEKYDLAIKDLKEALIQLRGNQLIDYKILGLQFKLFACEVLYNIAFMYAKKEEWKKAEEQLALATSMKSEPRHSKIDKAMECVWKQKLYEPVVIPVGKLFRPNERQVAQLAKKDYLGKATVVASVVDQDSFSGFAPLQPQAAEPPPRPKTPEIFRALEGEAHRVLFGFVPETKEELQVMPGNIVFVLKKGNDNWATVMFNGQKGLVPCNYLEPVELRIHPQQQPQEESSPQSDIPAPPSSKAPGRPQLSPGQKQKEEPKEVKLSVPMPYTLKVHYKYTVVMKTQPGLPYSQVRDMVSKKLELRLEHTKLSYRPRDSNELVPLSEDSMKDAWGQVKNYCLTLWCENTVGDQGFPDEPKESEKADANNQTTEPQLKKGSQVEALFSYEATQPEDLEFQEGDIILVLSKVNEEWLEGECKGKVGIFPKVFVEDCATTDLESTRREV

## GLAQKLLEALQKALLA [ICS4, GLAQKLLEALQKALLA]
  inhibition of O2- production, in words: capable of inhibiting O2^- production

Source: US5726155A, “Regulation of oxidative burst using LMWG-derived peptides and analogs” (The Scripps Research Institute, priority 1993, dated 1998)
